From the supplement of paper PMC10849652
The list shows a part of the results.

Protein sequences, listed by entry. Tags and fused reporters are not part of them. Lines headed by an entry give the natural chain unless they say otherwise; changes in a name come on top.
UniProt Q9C0B1, whole entry, looked up: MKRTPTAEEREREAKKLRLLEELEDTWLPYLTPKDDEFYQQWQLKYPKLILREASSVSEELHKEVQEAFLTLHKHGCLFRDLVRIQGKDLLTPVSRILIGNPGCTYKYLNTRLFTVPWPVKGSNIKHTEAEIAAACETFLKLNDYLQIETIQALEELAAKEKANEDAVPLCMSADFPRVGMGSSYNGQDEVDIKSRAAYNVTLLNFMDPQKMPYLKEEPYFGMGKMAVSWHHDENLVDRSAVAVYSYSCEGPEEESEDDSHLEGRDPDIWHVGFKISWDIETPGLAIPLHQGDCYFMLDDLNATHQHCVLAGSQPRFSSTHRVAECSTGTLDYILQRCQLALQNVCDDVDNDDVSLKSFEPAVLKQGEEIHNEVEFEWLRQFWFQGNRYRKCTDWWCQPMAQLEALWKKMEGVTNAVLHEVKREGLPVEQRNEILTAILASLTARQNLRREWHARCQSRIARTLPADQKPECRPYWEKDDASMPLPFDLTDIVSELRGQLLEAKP
UniProt Q06210: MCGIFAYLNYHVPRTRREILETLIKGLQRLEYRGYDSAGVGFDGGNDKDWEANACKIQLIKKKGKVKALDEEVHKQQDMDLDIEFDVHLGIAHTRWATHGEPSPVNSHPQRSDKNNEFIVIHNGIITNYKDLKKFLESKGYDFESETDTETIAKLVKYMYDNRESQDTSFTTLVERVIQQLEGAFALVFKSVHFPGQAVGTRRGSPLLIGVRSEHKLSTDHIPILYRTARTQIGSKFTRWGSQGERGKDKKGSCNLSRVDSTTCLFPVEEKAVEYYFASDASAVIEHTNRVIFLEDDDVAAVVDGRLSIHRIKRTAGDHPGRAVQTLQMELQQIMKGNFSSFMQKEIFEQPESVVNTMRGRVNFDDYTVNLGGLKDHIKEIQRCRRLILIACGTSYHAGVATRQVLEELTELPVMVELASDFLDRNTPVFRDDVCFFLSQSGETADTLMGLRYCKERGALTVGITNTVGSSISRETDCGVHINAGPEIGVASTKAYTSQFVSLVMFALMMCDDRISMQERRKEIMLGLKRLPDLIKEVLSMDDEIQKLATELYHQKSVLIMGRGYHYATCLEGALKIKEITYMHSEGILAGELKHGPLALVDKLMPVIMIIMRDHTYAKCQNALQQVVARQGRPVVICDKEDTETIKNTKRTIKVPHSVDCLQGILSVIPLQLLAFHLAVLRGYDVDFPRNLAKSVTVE
UniProt P30047: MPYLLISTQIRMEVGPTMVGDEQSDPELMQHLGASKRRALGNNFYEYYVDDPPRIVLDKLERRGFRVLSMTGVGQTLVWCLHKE
UniProt Q9UET6: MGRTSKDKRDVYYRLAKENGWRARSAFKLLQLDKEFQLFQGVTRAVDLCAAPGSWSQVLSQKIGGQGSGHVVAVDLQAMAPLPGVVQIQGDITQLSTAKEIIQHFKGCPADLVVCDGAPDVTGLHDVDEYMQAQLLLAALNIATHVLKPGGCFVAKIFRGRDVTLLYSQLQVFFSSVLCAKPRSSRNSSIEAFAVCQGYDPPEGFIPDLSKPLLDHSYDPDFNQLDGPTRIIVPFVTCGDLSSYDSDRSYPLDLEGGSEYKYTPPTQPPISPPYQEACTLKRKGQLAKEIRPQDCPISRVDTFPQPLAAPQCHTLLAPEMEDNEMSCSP
UniProt Q9BWH2: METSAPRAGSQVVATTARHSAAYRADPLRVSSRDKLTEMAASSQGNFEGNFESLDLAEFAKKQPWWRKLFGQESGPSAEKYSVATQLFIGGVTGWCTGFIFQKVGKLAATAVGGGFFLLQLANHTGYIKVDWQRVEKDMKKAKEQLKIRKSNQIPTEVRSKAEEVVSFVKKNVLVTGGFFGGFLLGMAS
UniProt Q9H2C0: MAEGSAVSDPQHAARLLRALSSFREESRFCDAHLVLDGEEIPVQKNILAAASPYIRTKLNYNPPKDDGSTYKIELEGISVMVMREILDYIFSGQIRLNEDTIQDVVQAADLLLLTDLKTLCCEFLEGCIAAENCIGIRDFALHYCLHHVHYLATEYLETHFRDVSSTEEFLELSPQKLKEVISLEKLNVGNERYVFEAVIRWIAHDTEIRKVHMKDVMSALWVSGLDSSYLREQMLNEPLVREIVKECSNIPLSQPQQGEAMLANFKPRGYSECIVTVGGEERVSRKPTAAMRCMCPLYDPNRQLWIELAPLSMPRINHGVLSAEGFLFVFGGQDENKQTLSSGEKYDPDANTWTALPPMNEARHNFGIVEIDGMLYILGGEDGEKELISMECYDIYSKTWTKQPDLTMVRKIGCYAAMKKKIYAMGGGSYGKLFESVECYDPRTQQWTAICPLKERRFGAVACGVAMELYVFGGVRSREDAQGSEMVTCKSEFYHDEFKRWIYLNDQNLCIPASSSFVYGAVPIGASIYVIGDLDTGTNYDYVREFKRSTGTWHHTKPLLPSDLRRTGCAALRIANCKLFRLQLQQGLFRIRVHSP
UniProt Q13480: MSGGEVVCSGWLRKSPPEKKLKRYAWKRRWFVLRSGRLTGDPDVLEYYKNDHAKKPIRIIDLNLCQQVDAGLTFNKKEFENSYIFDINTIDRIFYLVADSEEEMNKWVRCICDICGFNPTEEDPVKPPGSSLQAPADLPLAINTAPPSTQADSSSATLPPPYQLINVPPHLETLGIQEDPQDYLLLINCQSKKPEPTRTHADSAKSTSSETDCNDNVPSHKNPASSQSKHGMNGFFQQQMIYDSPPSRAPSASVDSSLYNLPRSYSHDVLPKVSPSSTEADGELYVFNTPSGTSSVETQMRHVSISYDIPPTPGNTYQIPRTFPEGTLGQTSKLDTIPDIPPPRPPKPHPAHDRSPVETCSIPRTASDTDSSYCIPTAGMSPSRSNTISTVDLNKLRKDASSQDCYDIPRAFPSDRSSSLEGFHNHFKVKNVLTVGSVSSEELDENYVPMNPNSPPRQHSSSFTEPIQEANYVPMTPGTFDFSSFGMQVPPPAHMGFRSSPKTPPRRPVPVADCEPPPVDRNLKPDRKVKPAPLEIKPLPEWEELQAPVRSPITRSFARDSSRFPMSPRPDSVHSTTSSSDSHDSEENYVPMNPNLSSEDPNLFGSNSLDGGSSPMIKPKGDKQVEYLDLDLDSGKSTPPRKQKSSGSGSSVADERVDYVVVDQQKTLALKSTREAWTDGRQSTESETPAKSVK
UniProt P48506: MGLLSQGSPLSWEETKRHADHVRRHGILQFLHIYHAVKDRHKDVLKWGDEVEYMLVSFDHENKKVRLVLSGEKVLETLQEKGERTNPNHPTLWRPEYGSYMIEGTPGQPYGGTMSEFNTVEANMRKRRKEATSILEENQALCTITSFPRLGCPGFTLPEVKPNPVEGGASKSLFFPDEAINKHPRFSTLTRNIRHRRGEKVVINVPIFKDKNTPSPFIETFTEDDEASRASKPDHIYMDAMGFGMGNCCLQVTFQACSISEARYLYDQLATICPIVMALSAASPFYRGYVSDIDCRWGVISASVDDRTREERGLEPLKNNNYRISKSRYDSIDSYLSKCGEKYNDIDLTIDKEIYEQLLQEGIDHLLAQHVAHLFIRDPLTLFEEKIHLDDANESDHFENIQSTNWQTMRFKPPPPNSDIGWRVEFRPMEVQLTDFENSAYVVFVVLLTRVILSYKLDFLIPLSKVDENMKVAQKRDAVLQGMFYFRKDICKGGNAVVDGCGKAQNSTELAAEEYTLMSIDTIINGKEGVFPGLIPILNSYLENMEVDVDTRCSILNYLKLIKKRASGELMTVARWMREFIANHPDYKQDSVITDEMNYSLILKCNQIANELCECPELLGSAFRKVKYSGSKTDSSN
UniProt Q13069: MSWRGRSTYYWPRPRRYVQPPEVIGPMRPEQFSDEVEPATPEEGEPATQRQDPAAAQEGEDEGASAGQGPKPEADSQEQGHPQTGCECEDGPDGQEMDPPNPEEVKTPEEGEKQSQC
UniProt Q7L5D6: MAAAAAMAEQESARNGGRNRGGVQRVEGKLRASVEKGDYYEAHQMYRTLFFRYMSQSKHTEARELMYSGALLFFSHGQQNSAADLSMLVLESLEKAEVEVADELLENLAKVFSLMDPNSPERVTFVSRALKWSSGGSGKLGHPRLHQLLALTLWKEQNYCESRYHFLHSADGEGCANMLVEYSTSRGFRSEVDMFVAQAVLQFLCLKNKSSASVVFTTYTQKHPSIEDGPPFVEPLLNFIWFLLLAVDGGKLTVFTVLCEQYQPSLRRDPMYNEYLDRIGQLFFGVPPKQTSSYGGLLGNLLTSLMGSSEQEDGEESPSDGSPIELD
UniProt P16383: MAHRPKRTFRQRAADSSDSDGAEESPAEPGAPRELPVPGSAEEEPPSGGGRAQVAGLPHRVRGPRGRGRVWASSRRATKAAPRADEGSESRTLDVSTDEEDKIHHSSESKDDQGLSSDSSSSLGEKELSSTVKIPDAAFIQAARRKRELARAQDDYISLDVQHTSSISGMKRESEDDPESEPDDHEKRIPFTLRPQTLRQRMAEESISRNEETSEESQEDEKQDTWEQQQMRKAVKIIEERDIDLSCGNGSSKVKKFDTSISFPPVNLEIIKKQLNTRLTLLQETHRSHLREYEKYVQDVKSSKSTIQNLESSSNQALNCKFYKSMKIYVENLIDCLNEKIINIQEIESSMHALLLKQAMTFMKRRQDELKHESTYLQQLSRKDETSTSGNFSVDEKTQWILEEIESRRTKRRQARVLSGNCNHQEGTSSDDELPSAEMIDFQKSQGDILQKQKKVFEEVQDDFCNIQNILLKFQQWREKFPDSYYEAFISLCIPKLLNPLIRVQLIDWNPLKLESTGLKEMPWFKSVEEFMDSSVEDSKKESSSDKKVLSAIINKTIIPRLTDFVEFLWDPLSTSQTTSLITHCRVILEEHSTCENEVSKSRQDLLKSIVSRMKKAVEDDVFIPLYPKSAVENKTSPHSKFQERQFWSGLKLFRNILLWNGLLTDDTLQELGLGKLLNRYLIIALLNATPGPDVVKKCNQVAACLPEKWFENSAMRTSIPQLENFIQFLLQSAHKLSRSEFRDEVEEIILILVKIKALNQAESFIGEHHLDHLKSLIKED
UniProt P11413, whole entry, looked up: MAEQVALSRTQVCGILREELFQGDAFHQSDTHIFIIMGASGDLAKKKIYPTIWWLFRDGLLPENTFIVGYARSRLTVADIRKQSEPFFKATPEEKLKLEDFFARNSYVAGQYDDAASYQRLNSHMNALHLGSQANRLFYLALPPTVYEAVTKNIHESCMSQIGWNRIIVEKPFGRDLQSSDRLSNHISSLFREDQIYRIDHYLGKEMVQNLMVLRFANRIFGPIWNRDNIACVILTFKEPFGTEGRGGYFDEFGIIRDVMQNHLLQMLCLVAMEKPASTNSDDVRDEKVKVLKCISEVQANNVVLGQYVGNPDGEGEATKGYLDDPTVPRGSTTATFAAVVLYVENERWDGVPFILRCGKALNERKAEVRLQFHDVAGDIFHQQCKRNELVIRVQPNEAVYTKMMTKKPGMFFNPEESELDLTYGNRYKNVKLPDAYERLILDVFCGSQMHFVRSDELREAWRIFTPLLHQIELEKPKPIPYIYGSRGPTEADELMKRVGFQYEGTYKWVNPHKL
UniProt Q9UJY5: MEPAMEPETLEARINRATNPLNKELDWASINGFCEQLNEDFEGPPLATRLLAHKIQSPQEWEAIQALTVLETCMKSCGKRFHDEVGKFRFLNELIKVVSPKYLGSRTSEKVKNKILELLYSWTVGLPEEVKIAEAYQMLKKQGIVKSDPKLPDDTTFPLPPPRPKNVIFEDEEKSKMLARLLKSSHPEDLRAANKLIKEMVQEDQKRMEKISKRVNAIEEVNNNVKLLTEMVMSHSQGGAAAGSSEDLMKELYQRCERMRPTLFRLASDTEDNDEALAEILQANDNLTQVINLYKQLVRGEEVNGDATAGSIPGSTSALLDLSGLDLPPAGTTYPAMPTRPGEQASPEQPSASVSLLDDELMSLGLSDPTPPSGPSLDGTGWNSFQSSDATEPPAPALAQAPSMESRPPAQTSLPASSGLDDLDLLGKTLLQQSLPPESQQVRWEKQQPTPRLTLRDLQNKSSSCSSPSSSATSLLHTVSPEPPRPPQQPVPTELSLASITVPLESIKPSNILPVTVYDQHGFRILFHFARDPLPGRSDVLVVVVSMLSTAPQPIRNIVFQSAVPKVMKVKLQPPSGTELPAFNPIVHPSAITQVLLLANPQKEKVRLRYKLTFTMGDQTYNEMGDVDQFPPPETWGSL
UniProt Q96CU9: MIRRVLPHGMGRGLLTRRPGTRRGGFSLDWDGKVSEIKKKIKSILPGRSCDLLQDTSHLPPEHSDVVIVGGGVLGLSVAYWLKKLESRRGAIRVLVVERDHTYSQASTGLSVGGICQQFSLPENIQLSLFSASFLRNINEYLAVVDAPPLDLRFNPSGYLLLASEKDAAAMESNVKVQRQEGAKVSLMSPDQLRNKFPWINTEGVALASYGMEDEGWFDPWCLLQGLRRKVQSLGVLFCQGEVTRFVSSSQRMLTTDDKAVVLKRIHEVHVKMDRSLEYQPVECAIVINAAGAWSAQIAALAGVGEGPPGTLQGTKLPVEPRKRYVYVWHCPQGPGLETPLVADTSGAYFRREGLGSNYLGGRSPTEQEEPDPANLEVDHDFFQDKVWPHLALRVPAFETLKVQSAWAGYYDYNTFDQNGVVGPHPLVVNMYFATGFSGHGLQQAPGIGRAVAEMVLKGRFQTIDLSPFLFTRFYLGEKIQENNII

How the values were obtained:
Experiment in all cases: log2 fold change, soluble protein after heating vs DMSO (PISA); higher = thermal stabilisation; K562 cells, 10 uM, 30 min; active = over 0.2 and 3.5 SD of the protein, either way, in both replicates (recomputed)
saracatinib = compound: CN1CCN(CCOc2cc(OC3CCOCC3)c3c(Nc4c(Cl)ccc5c4OCO5)ncnc3c2)CC1 [saracatinib]
Outline: (§1)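 K562 cells (2×10^6 cells/mL) were treated with 10 μM compound for 30 min, and aliquots were heated for 3 min over 48°C-58°C. Pooled aliquots were extracted in PBS with 0.5% NP-40 at 4°C, and the supernatant after 21,000xg for 90 min was measured by TMTpro 16plex LC-MS/MS with channel sums equalised. Reported thermal stability, relative to control samples and from duplicates, is a log2 fold change.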

sotrastaurin = compound: CN1CCN(c2nc(C3=C(c4c[nH]c5ccccc45)C(=O)NC3=O)c3ccccc3n2)CC1 [sotrastaurin]
Outline: as §1

alvocidib = compound: CN1CC[C@H](c2c(O)cc(O)c3c(=O)cc(-c4ccccc4Cl)oc23)[C@H](O)C1 [alvocidib]
Outline: as §1

Tubastatin A = compound: CN1CCc2c(c3ccccc3n2Cc2ccc(C(=O)NO)cc2)C1 [Tubastatin A]
Outline: as §1

[1] = compound: CNC(=O)C1=CC=CC=C1NC2=NC(=NC=C2Cl)NC3=C(C=C(C=C3)N4CCOCC4)OC
Outline: as §1

defactinib = compound: CNC(=O)c1ccc(Nc2ncc(C(F)(F)F)c(NCc3nccnc3N(C)S(C)(=O)=O)n2)cc1 [defactinib]
Outline: as §1

rucaparib = compound: CNCc1ccc(-c2[nH]c3cc(F)cc4c3c2CCNC4=O)cc1 [rucaparib]
Outline: as §1

[2] = compound: CNc1nc(-c2ccc3c(N)n[nH]c3c2)cc(N2C[C@@H](C(=O)NC3CCCCC3)CC[C@H]2C)n1
Outline: as §1

encorafenib = compound: COC(=O)N[C@@H](C)CNc1nccc(-c2cn(C(C)C)nc2-c2cc(Cl)cc(NS(C)(=O)=O)c2F)n1 [encorafenib]
Outline: as §1

[3] = compound: COC(=O)[C@H](CCSC)NC(=O)C1=C(C=C(C=C1)NC[C@H](CS)N)C2=CC=CC=C2
Outline: as §1

Measured: log2 fold change

GART (UniProt P22102)
inactive: saracatinib -0.037 | sotrastaurin 0 | alvocidib -0.063 | Tubastatin A 0.041 | [1] 0.053 | defactinib -0.03 | rucaparib -0.029 | [2] 0.08 | encorafenib 0.045 | [3] -0.061

FUBP1 isoform 2 (UniProt Q96AE4)
inactive: saracatinib 0.036 | sotrastaurin 0.049 | alvocidib 0.006 | Tubastatin A -0.018 | [1] 0.026 | defactinib 0.014 | rucaparib -0.03 | [2] -0.046 | encorafenib -0.023 | [3] 0.003

GALNT12 (UniProt Q8IXK2)
inactive: saracatinib -0.227 | sotrastaurin -0.103 | alvocidib -0.164 | Tubastatin A 0.122 | [1] -0.106 | defactinib -0.029 | rucaparib -0.123 | [2] -0.137 | encorafenib 0.158 | [3] 0.063

GALNT7 (UniProt Q86SF2)
inactive: saracatinib 0.026 | sotrastaurin -0.099 | alvocidib -0.075 | Tubastatin A 0.003 | [1] -0.033 | defactinib -0.018 | rucaparib -0.018 | [2] -0.001 | encorafenib 0.021 | [3] -0.012

FTO (UniProt Q9C0B1)
inactive: saracatinib 0.012 | sotrastaurin 0.039 | alvocidib -0.018 | Tubastatin A -0.014 | [1] 0.037 | defactinib -0.031 | rucaparib -0.033 | [2] -0.005 | encorafenib -0.005 | [3] 0.039

GFPT1 (UniProt Q06210)
inactive: saracatinib 0.05 | sotrastaurin 0.004 | alvocidib -0.105 | Tubastatin A -0.007 | [1] -0.009 | defactinib -0.062 | rucaparib -0.034 | [2] 0.006 | encorafenib 0.012 | [3] -0.003

GFM1 (UniProt Q96RP9)
inactive: saracatinib -0.035 | sotrastaurin -0.037 | alvocidib -0.144 | Tubastatin A 0.053 | [1] 0.021 | defactinib -0.081 | rucaparib 0.009 | [2] 0.054 | encorafenib -0.01 | [3] -0.062

GADD45GIP1 (UniProt Q8TAE8)
inactive: saracatinib -0.076 | sotrastaurin 0.025 | alvocidib 0.105 | Tubastatin A 0.054 | [1] 0.01 | defactinib 0.062 | rucaparib 0.022 | [2] 0.035 | encorafenib 0.012 | [3] 0.014

GCHFR (UniProt P30047)
inactive: saracatinib -0.075 | sotrastaurin 0.027 | alvocidib -0.027 | Tubastatin A -0.002 | [1] -0.016 | defactinib -0.09 | rucaparib -0.129 | [2] -0.08 | encorafenib -0.042 | [3] 0.1

GALT (UniProt P07902)
inactive: saracatinib 0.018 | sotrastaurin -0.139 | alvocidib -0.159 | Tubastatin A -0.048 | [1] -0.029 | defactinib -0.109 | rucaparib 0.035 | [2] 0.015 | encorafenib -0.263 | [3] 0.002

FTSJ1 (UniProt Q9UET6)
inactive: saracatinib -0.035 | sotrastaurin 0.205 | alvocidib -0.046 | Tubastatin A 0.003 | [1] -0.078 | defactinib -0.012 | rucaparib 0.037 | [2] 0.059 | encorafenib -0.034 | [3] -0.053

FUNDC2 (UniProt Q9BWH2)
inactive: saracatinib -0.006 | sotrastaurin 0.088 | alvocidib 0.019 | Tubastatin A -0.023 | [1] 0.028 | defactinib 0.01 | rucaparib -0.031 | [2] -0.063 | encorafenib -0.017 | [3] -0.021

GAN (UniProt Q9H2C0)
inactive: saracatinib 0.121 | sotrastaurin 0.022 | alvocidib -0.061 | Tubastatin A -0.05 | [1] 0.008 | defactinib -0.022 | rucaparib -0.113 | [2] 0.022 | encorafenib -0.054 | [3] 0.055

FYCO1 isoform 4 (UniProt Q9BQS8)
inactive: saracatinib 0.041 | sotrastaurin -0.019 | alvocidib -0.112 | Tubastatin A 0.04 | [1] -0.034 | defactinib -0.068 | rucaparib 0.077 | [2] -0.185 | encorafenib 0.005 | [3] -0.01

GAB1 isoform 2 (UniProt Q13480)
inactive: saracatinib 0.06 | sotrastaurin 0.032 | alvocidib -0.027 | Tubastatin A -0.064 | [1] -0.053 | defactinib -0.076 | rucaparib 0.087 | [2] -0.011 | encorafenib -0.074 | [3] 0.131

2 entries picked at random from the list so far, as already listed:
FTSJ1 (UniProt Q9UET6)
inactive: saracatinib -0.035 | sotrastaurin 0.205 | alvocidib -0.046 | Tubastatin A 0.003 | [1] -0.078 | defactinib -0.012 | rucaparib 0.037 | [2] 0.059 | encorafenib -0.034 | [3] -0.053

FUNDC2 (UniProt Q9BWH2)
inactive: saracatinib -0.006 | sotrastaurin 0.088 | alvocidib 0.019 | Tubastatin A -0.023 | [1] 0.028 | defactinib 0.01 | rucaparib -0.031 | [2] -0.063 | encorafenib -0.017 | [3] -0.021

Continued:

GCLC (UniProt P48506)
inactive: saracatinib 0.008 | sotrastaurin 0.019 | alvocidib -0.025 | Tubastatin A -0.014 | [1] -0.044 | defactinib -0.042 | rucaparib -0.037 | [2] -0.014 | encorafenib 0.018 | [3] -0.014

GAGE5 (UniProt Q13069)
inactive: saracatinib -0.031 | sotrastaurin 0.088 | alvocidib -0.001 | Tubastatin A 0.028 | [1] -0.096 | defactinib 0.031 | rucaparib 0.002 | [2] 0.012 | encorafenib -0.029 | [3] 0.002

GET4 (UniProt Q7L5D6)
inactive: saracatinib 0.007 | sotrastaurin 0.009 | alvocidib -0.01 | Tubastatin A 0.013 | [1] 0.041 | defactinib -0.061 | rucaparib 0.08 | [2] 0.008 | encorafenib 0.043 | [3] -0.044

GCFC2 (UniProt P16383)
inactive: saracatinib 0.138 | sotrastaurin 0.118 | alvocidib -0.142 | Tubastatin A 0.005 | [1] -0.059 | defactinib -0.1 | rucaparib 0.021 | [2] -0.059 | encorafenib -0.057 | [3] -0.041

G6PD isoform 2 (UniProt P11413)
inactive: saracatinib 0.001 | sotrastaurin 0.003 | alvocidib -0.101 | Tubastatin A -0.025 | [1] 0.001 | defactinib -0.009 | rucaparib -0.051 | [2] 0.021 | encorafenib -0.016 | [3] -0.013

GALNT5 (UniProt Q7Z7M9)
inactive: saracatinib -0.002 | sotrastaurin 0.005 | alvocidib -0.055 | Tubastatin A -0.001 | [1] 0.037 | defactinib -0.036 | rucaparib 0.041 | [2] -0.051 | encorafenib -0.006 | [3] 0.008

GGCX (UniProt P38435)
inactive: saracatinib -0.113 | sotrastaurin -0.024 | alvocidib -0.011 | Tubastatin A 0.07 | [1] -0.025 | defactinib 0.015 | rucaparib 0.057 | [2] 0.028 | encorafenib -0.112 | [3] -0.027

FUS (UniProt P35637)
inactive: saracatinib 0.052 | sotrastaurin 0.028 | alvocidib 0.188 | Tubastatin A -0.038 | [1] 0.007 | defactinib 0.174 | rucaparib 0.141 | [2] -0.06 | encorafenib 0.002 | [3] 0.069

GGA1 isoform 6 (UniProt Q9UJY5)
inactive: saracatinib 0.031 | sotrastaurin -0.021 | alvocidib -0.104 | Tubastatin A -0.02 | [1] 0.007 | defactinib -0.081 | rucaparib -0.01 | [2] 0.018 | encorafenib -0.033 | [3] -0.02

FRRS1 (UniProt Q6ZNA5)
inactive: saracatinib 0.006 | sotrastaurin 0.034 | alvocidib 0 | Tubastatin A 0.031 | [1] -0.011 | defactinib -0.022 | rucaparib -0.074 | [2] -0.089 | encorafenib 0.038 | [3] -0.046

GAMT (UniProt Q14353)
inactive: saracatinib -0.017 | sotrastaurin -0.091 | alvocidib -0.032 | Tubastatin A 0.037 | [1] 0 | defactinib -0.115 | rucaparib 0.067 | [2] 0.016 | encorafenib -0.042 | [3] -0.005

FOXRED1 (UniProt Q96CU9)
inactive: saracatinib 0.021 | sotrastaurin 0.017 | alvocidib -0.048 | Tubastatin A -0.107 | [1] -0.013 | defactinib -0.005 | rucaparib -0.044 | [2] 0.045 | encorafenib 0.032 | [3] -0.001
